Results are given in words; binding and its absence hold for the method and conditions named. Binding seen in cells or lysates may run through a third protein. Some entries that bind do so weakly or less than the wild type.
Assays:
[1] = target: T1, RIPK1 (RIP kinase 1), endogenous in BMDMs (mouse (endogenous in BMDMs)) (UniProt Q60855); assay: co-IP; endogenous proteins of primary BMDMs stimulated 4 h with LPS (100 ng/mL) + TAK1 inhibitor 5Z-7-oxozeaenol (0.1 uM), without zVAD; NP-40 lysis buffer; RIPK1 or ASC immunoprecipitated, protein A/G plus agarose; immunoblot
T1 sequence: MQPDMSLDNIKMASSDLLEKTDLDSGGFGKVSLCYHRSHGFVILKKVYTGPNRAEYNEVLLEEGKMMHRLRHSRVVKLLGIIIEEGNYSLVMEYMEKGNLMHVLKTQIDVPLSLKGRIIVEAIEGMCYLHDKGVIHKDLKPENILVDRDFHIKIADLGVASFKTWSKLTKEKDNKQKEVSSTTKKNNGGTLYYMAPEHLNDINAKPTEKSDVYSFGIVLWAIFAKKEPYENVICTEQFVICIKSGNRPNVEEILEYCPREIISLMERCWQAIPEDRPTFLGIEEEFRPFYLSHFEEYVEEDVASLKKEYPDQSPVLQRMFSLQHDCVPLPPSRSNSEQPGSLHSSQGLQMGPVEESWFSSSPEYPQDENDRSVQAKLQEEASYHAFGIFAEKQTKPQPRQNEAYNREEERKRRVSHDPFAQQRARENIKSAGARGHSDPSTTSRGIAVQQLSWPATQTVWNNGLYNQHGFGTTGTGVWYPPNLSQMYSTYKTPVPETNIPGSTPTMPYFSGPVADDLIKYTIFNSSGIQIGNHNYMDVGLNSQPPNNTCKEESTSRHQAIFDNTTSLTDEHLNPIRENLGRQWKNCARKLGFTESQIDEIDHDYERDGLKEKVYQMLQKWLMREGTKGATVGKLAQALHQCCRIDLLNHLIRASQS

Sequences of proteins named here, by UniProt entry; tags and fusion partners are left off.
UniProt Q9QZL0: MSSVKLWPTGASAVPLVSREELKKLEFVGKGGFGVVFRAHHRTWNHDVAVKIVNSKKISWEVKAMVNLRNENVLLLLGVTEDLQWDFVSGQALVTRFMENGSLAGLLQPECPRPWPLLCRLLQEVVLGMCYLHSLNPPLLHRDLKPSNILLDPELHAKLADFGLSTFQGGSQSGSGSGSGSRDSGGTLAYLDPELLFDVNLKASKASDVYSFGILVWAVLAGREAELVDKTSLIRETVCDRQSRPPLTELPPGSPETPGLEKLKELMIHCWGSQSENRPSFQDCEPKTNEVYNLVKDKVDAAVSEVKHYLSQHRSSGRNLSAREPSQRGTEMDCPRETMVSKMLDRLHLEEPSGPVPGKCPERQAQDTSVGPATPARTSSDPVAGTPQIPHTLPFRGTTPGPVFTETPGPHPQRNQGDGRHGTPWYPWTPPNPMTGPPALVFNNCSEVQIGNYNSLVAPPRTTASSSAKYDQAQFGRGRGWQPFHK
UniProt Q8R4B8: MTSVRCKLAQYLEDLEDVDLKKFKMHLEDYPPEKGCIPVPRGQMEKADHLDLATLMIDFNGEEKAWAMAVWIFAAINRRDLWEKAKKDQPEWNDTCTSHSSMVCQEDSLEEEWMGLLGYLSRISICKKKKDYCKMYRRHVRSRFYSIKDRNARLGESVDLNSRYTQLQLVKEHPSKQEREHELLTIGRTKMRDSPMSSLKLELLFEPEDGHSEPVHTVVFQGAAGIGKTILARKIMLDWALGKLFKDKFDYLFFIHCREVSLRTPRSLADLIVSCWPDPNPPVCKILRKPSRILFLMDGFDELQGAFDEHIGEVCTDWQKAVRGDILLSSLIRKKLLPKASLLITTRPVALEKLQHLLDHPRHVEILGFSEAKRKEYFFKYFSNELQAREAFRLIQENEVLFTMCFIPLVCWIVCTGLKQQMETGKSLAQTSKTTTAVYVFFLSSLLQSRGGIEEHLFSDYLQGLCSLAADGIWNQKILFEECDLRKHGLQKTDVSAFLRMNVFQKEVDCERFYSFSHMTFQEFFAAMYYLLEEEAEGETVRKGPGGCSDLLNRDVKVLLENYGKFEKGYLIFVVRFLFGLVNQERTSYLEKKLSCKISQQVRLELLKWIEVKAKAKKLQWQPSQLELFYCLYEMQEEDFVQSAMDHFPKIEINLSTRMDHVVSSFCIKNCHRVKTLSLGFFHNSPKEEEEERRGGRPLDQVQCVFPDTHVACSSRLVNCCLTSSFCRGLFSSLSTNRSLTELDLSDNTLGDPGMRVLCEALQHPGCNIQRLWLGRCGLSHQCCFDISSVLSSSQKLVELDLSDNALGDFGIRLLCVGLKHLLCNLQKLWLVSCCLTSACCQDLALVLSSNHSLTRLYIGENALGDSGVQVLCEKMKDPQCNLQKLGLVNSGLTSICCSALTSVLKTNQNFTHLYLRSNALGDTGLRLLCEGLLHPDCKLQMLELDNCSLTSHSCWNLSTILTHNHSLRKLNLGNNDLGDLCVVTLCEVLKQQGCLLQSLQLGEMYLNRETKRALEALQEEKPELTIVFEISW

[2] = target: T1, RIPK1 (RIP kinase 1), endogenous in BMDMs (mouse (endogenous in BMDMs)); assay: co-IP; endogenous proteins of primary BMDMs stimulated 4 h with LPS (100 ng/mL) + TAK1 inhibitor 5Z-7-oxozeaenol (0.1 uM) + zVAD; NP-40 lysis buffer; RIPK1 or ASC immunoprecipitated overnight at 4°C, protein A/G plus agarose; immunoblot
[3] = target: RIPK3-GFP (receptor-interacting serine/threonine-protein kinase 3) (UniProt Q9QZL0); assay: co-IP; HEK293T co-transfected (600 ng each, 30 h) with ASC-turboGFP, CASP8, FLAG-NLRP3, RIPK1 and mCherry-ZBP1 with or without RIPK3-GFP; zVAD-fmk; RIPK3 immunoprecipitated; NP-40 lysis buffer; protein A/G-plus agarose; immunoblot
[4] = target: FLAG-tagged NLRP3 (nucleotide-binding oligomerization domain-like receptor family pyrin domain-containing 3) (UniProt Q8R4B8); assay: co-IP; HEK293T co-transfected (600 ng each, 30 h) with FLAG-NLRP3 and ZBP1, RIPK3 or RIPK1 individually; zVAD-fmk; NP-40 lysis buffer (1% NP-40, 150 mM NaCl, 50 mM HEPES); antibody overnight at 4°C, protein A/G-plus agarose; immunoblot

NLRP3, endogenous in BMDMs (from UniProt Q8R4B8 1-1033)
binding [1]: binds weakly | binding [2]: binds

FLAG-tagged NLRP3 (nucleotide-binding oligomerization domain-like receptor family pyrin domain-containing 3) (from UniProt Q8R4B8 1-1033)
binding [3]: binds

RIPK3-GFP (receptor-interacting serine/threonine-protein kinase 3) (from UniProt Q9QZL0 1-486)
binding [4]: binds

Reference: publication PMC7274033
